The subject of the series is MRPs. Description: Caco-2 pump out assay, CMFDA excretion. Type of series: cell-based. The note with it: Kout CMFDA 96-well / 384-well.
Consider `CC(=O)Nc1ccc(O)cc1` [acetanomiphen], for which the “Ratio Kout 96/384 wells, MRPs” value is 0.76. On to `COc1cccc2c1C(=O)c1c(O)c3c(c(O)c1C2=O)C[C@@](O)(C(=O)CO)C[C@@H]3O[C@H]1C[C@H](N)[C@H](O)[C@H](C)O1` [doxorubicin], for which the “Ratio Kout 96/384 wells, MRPs” value was 0.82. With `CO[C@H]1/C=C/O[C@@]2(C)Oc3c(C)c(O)c4c(O)c(c(/C=N/N5CCN(C)CC5)c(O)c4c3C2=O)NC(=O)/C(C)=C\C=C\[C@H](C)[C@H](O)[C@@H](C)[C@@H](O)[C@@H](C)[C@H](OC(C)=O)[C@@H]1C` [rifampicin], the “Ratio Kout 96/384 wells, MRPs” value came out at 0.99. Next, `COc1cc2c(cc1OC)CN(CCc1ccc(NC(=O)c3cccc4c(=O)c5cccc(OC)c5[nH]c34)cc1)CC2` [elacridar]: 1.27; `CN(C)C(=O)CCSC(SCCC(=O)O)c1cccc(C=Cc2ccc3ccc(Cl)cc3n2)c1` (centres unmarked) [MK571, 3-[[3-[2-(7-chloroquinolin-2-yl)vinyl]phenyl]-(2-dimethylcarbamoylethylsulfanyl)methylsulfanyl] propionic acid]: 1.59; `CCC1(c2ccccc2)C(=O)NC(=O)NC1=O` [phenobarbital]: 1.03. Next, `CN(C)C(=O)C(CCN1CCC(O)(c2ccc(Cl)cc2)CC1)(c1ccccc1)c1ccccc1` [loperamide]: 1.19; `CC[C@]1(O)C[C@@H]2CN(CCc3c([nH]c4ccccc34)[C@@](C(=O)OC)(c3cc4c(cc3OC)N(C)[C@H]3[C@@](O)(C(=O)OC)[C@H](OC(C)=O)[C@]5(CC)C=CCN6CC[C@]43[C@@H]65)C2)C1` [vinblastine]: 0.95.

Values taken from article PMC6888615, “A Miniaturized Pump Out Method for Characterizing Molecule Interaction with ABC Transporters” (International Journal of Molecular Sciences, 2019).
